Data taken from paper doi:10.1101/2023.02.10.527998.
No constants are given. Whether binding was seen depends on the method and setting. In cells and extracts the contact can be indirect. Some results given as binding are weak or reduced against the parent protein; the word gives no strength. Sequences can lack the tags named with a protein.

T1: sp-myc-hSema4D (myc-tagged human Sema4D) (human) (UniProt Q92854)
T1 sequence: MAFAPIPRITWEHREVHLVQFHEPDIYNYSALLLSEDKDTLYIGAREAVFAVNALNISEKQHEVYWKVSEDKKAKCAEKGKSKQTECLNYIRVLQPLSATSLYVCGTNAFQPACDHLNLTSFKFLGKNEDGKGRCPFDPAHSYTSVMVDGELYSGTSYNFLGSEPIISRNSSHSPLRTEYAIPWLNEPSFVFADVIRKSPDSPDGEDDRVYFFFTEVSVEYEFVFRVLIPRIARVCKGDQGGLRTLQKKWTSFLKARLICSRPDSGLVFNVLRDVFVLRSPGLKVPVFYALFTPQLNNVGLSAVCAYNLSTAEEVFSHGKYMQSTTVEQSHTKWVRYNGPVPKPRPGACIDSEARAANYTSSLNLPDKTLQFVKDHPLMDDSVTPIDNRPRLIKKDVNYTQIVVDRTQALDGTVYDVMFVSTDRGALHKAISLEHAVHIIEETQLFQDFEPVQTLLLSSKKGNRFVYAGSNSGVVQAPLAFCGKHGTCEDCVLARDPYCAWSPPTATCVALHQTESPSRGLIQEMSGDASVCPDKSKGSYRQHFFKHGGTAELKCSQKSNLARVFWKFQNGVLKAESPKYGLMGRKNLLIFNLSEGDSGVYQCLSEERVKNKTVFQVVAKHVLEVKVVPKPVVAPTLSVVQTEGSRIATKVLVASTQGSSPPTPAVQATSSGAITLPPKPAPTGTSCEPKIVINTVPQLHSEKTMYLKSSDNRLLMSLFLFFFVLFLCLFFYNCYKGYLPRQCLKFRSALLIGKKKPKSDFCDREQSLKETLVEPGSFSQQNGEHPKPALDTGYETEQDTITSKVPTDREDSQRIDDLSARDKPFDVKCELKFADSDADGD

T2: sp-myc-hSema4D-Q497P (myc-tagged human Sema4D, 497P variant) (human) (UniProt Q92854)
T2 sequence: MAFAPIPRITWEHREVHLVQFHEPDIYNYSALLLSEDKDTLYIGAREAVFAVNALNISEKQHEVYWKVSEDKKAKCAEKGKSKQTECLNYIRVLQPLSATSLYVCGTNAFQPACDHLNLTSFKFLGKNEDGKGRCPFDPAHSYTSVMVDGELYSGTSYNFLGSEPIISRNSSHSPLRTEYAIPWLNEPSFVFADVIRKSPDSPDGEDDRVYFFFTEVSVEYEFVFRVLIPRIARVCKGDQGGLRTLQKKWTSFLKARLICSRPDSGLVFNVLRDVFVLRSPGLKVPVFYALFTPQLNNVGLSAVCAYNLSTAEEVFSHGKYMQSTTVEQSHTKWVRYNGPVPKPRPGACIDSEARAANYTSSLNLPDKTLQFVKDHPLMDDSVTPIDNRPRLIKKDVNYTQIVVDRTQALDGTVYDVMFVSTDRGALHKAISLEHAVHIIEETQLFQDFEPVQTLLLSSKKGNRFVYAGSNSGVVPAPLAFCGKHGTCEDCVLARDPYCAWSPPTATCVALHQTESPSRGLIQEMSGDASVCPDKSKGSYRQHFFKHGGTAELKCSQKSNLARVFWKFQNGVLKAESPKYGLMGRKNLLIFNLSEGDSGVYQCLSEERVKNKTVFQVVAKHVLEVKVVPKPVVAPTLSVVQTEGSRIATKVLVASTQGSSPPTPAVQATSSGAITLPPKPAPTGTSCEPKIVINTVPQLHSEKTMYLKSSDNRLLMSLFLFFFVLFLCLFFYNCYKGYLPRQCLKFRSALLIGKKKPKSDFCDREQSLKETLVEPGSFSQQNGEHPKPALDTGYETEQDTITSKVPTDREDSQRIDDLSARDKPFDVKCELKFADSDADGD

T3: N-Myc-Sema4D (addgene # 51599) (UniProt O09126)
T3 sequence: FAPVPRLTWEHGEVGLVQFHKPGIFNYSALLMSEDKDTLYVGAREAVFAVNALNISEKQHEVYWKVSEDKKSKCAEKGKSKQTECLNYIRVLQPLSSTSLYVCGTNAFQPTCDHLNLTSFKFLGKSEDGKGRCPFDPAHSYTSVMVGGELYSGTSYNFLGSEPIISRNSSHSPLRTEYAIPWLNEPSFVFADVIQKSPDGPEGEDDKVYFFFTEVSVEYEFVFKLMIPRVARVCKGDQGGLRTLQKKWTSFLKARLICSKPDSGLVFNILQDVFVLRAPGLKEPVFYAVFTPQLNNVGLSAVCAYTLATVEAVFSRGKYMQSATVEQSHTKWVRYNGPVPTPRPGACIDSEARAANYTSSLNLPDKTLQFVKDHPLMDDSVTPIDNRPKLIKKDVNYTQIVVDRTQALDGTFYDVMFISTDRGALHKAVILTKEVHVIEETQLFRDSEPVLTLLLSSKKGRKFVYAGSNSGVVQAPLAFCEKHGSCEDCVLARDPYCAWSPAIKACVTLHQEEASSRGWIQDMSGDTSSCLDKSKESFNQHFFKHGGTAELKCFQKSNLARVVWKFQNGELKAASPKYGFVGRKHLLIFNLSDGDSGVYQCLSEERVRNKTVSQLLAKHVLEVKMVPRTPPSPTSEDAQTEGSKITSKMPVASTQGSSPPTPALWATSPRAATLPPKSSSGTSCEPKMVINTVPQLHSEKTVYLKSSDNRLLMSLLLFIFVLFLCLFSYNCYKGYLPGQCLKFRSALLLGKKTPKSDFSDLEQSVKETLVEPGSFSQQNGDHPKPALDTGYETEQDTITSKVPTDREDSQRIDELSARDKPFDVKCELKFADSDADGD

T4: N-myc-Sema6A (UniProt O35464)
T4 sequence: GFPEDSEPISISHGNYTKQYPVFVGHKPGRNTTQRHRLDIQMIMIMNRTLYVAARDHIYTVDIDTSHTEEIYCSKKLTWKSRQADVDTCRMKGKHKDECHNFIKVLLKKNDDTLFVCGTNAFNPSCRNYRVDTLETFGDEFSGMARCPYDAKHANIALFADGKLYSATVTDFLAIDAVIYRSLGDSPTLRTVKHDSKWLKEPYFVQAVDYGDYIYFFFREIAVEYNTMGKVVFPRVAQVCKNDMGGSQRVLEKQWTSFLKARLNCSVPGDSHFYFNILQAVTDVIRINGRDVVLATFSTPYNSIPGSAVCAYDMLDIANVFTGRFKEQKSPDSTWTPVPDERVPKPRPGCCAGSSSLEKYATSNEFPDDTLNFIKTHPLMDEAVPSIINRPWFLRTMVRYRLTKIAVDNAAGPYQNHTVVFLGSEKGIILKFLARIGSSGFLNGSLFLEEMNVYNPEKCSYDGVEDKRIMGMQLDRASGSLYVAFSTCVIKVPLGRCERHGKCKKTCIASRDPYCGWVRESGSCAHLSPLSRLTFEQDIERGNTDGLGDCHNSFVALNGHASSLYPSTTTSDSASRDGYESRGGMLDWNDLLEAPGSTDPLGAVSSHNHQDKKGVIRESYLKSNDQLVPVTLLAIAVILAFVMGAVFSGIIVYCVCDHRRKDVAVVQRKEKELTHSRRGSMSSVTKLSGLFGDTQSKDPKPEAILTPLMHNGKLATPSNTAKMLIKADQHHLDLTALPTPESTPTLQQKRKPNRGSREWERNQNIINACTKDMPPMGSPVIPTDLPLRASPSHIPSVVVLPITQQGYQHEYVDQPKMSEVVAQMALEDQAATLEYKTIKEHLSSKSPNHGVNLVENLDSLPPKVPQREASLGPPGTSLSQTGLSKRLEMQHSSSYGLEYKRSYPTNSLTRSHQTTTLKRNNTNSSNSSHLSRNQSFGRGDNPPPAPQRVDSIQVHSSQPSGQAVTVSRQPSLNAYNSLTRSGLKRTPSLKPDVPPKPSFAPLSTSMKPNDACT


Experiments:
Assay in all cases: co-IP
[1] = target: T1, sp-myc-hSema4D (myc-tagged human Sema4D) (human)
[2] = target: T2, sp-myc-hSema4D-Q497P (myc-tagged human Sema4D, 497P variant) (human)
[3] = target: T3, N-Myc-Sema4D (addgene # 51599)
N-myc-Sema6A = target: T4, N-myc-Sema6A

Row | binding [1] | binding [2] | binding [3] | binding (N-myc-Sema6A) | Molecule
1 | binds | binds | – | – | sp-flag-hSema4D (flag-tagged human Sema4D) (from UniProt Q92854-1 22-862)
2 | – | – | binds | – | Sema4D-Flag (mouse Sema4D with a C-terminal, cytoplasmic flag tag) (protein, UniProt O09126 24-861) FAPVPRLTWEHGEVGLVQFHKPGIFNYSALLMSEDKDTLYVGAREAVFAVNALNISEKQHEVYWKVSEDKKSKCAEKGKSKQTECLNYIRVLQPLSSTSLYVCGTNAFQPTCDHLNLTSFKFLGKSEDGKGRCPFDPAHSYTSVMVGGELYSGTSYNFLGSEPIISRNSSHSPLRTEYAIPWLNEPSFVFADVIQKSPDGPEGEDDKVYFFFTEVSVEYEFVFKLMIPRVARVCKGDQGGLRTLQKKWTSFLKARLICSKPDSGLVFNILQDVFVLRAPGLKEPVFYAVFTPQLNNVGLSAVCAYTLATVEAVFSRGKYMQSATVEQSHTKWVRYNGPVPTPRPGACIDSEARAANYTSSLNLPDKTLQFVKDHPLMDDSVTPIDNRPKLIKKDVNYTQIVVDRTQALDGTFYDVMFISTDRGALHKAVILTKEVHVIEETQLFRDSEPVLTLLLSSKKGRKFVYAGSNSGVVQAPLAFCEKHGSCEDCVLARDPYCAWSPAIKACVTLHQEEASSRGWIQDMSGDTSSCLDKSKESFNQHFFKHGGTAELKCFQKSNLARVVWKFQNGELKAASPKYGFVGRKHLLIFNLSDGDSGVYQCLSEERVRNKTVSQLLAKHVLEVKMVPRTPPSPTSEDAQTEGSKITSKMPVASTQGSSPPTPALWATSPRAATLPPKSSSGTSCEPKMVINTVPQLHSEKTVYLKSSDNRLLMSLLLFIFVLFLCLFSYNCYKGYLPGQCLKFRSALLLGKKTPKSDFSDLEQSVKETLVEPGSFSQQNGDHPKPALDTGYETEQDTITSKVPTDREDSQRIDELSARDKPFDVKCELKFADSDADGD
3 | – | – | binds | binds weakly | C-terminal GFP tagged Sema7A (protein, UniProt Q9QUR8 45-646) QGHSRSGPRISAVWKGQDHVDFSQPEPHTVLFHEPGSFSVWVGGRGKVYHFNFPEGKNASVRTVNIGSTKGSCQDKQDCGNYITLLERRGNGLLVCGTNARKPSCWNLVNDSVVMSLGEMKGYAPFSPDENSLVLFEGDEVYSTIRKQEYNGKIPRFRRIRGESELYTSDTVMQNPQFIKATIVHQDQAYDDKIYYFFREDNPDKNPEAPLNVSRVAQLCRGDQGGESSLSVSKWNTFLKAMLVCSDAATNRNFNRLQDVFLLPDPSGQWRDTRVYGVFSNPWNYSAVCVYSLGDIDRVFRTSSLKGYHMGLPNPRPGMCLPKKQPIPTETFQVADSHPEVAQRVEPMGPLKTPLFHSKYHYQKVVVHRMQASNGETFHVLYLTTDRGTIHKVVESGDQDHSFVFNIMEIQPFHRAAAIQAISLDADRRKLYVTSQWEVSQVPLDMCEVYSGGCHGCLMSRDPYCGWDQDRCVSIYSSQRSVLQSINPAEPHRECPNPKPDEAPLQKVSLARNSRYYLTCPMESRHATYLWRHEENVEQSCEPGHQSPSCILFIENLTARQYGHYRCEAQEGSYLREAQHWELLPEDRALAEQLMGHARALA
